Measurements reported in patent publication US6248754A, “Substituted isoquinoline derivatives and their use as anticonvulsants” (SmithKline Beecham, p.l.c., priority 1997, dated 2001).
At least one compound was matched to its structure with a doubt left. Some entries repeat one wording, which the source may state once for all of them. Some of these results come from one statement about several compounds together.

The molecules below were run against novel receptor obtainable from rat forebrain tissue (assay: Radioligand binding assay, displacement of [3H]-Compound A). Conditions: competition with 20 nM [3H]-Compound A, room temperature 1 hour.
Procedure: The affinity of test compounds to the novel receptor site is assessed as follows. Whole forebrain tissue is obtained from rats. The tissue is first homogenised in buffer (usually 50 mM Tris/HCl, pH 7.4). The homogenised tissue is washed by centrifugation and resuspension in the same buffer, then stored at -70° C. until used. To carry out the radioligand binding assay, aliquots of tissue prepared as above (usually at a concentration of 1-2 mg protein/ml) are mixed with aliquots of [3H]-Compound A dissolved in buffer. The final concentration of [3H]-Compound A in the mixture is usually 20 nM. The mixture is incubated at room temperature for 1 hour. [3H]-Compound A bound to the tissue is then separated from unbound [3H]-Compound A by filtration through Whatman GF/B glass fibre filters. The filters are then washed rapidly with ice-cold buffer. The amount of radioactivity bound to the tissue trapped on the filters is measured by addition of liquid scintillation cocktail to the filters followed by counting in a liquid scintillation counter. In order to determine the amount of "specific" binding of [3H]-Compound A, parallel assays are carried out as above in which [3H]-Compound A and tissue are incubated together in the presence of unlabelled Compound A (usually 3 μM). The amount of binding of [3H]-Compound A remaining in the presence of this unlabelled compound is defined as "non-specific" binding. This amount is subtracted from the total amount of [3H]-Compound A binding (i.e. that present in the absence of unlabelled compound) to obtain the amount of "specific" binding of [3H]-Compound A to the novel site. The affinity of the binding of test compounds to the novel site can be estimated by incubating together [3H]-Compound A and tissue in the presence of a range of concentrations of the compound to be tested. The decrease in the level of specific [3H]-Compound A binding as a result of competition by increasing concentrations of the compound under test is plotted graphically, and non-linear regression analysis of the resultant curve is used to provide an estimate of compound affinity in terms of pKi value.
With COc1ccc(C(=O)Nc2ccc3c(c2Cl)CN(C)CC3)cc1C(F)(F)F [Example 6, N-(8-Chloro-2-methyl-1,2,3,4-tetrahydroisoquinolin-7-yl)-4-methoxy-3-trifluoromethylbenzamide] the pKi was “greater than 7”.
COc1ccc(C(=O)Nc2ccc3c(c2Br)CNCC3)cc1C(F)(F)F [Example 8, N-(8-Bromo-1,2,3,4-tetrahydroisoquinolin-7-yl)-4-methoxy-3-trifluoromethylbenzamide] was tested, and the pKi was “greater than 7”.
COc1ccc(C(=O)Nc2ccc3c(c2Br)CN(C)CC3)cc1C(F)(F)F [Example 9, N-(8-Bromo-2-methyl-1,2,3,4-tetrahydroisoquinolin-7-yl)-4-methoxy-3-trifluoromethylbenzamide] was tested, and the pKi was “greater than 7”.
For COc1ccc(C(=O)Nc2ccc3c(c2C)CN(C)CC3)cc1C(F)(F)F [Example 10], the pKi was “greater than 7”.
For COc1ccc(C(=O)Nc2ccc3c(c2Cl)CN(CCO)CC3)cc1C(F)(F)F [Example 11, N-(2-(2-Hydroxyethyl)-8-chloro-1,2,3,4-tetrahydroisoquinolin-7-yl)-4-methoxy-3-trifluoromethylbenzamide], the pKi was “greater than 7”.
With COc1ccc(C(=O)Nc2ccc3c(c2Cl)CN(C=O)CC3)cc1C(F)(F)F [Example 12, N-(2-Formyl-8-chloro-1,2,3,4-tetrahydroisoquinolin-7-yl)-4-methoxy-3-trifluoromethylbenzamide] the pKi was “greater than 7”.
